Experimental data taken from the supplement of paper PMC10849652.
Some of the results follow.

Sequences of proteins named here, by UniProt entry; tags and fusion partners are left off. A change or cut given only in a name is not applied to a line headed by its entry.
UniProt Q05397, whole entry, looked up: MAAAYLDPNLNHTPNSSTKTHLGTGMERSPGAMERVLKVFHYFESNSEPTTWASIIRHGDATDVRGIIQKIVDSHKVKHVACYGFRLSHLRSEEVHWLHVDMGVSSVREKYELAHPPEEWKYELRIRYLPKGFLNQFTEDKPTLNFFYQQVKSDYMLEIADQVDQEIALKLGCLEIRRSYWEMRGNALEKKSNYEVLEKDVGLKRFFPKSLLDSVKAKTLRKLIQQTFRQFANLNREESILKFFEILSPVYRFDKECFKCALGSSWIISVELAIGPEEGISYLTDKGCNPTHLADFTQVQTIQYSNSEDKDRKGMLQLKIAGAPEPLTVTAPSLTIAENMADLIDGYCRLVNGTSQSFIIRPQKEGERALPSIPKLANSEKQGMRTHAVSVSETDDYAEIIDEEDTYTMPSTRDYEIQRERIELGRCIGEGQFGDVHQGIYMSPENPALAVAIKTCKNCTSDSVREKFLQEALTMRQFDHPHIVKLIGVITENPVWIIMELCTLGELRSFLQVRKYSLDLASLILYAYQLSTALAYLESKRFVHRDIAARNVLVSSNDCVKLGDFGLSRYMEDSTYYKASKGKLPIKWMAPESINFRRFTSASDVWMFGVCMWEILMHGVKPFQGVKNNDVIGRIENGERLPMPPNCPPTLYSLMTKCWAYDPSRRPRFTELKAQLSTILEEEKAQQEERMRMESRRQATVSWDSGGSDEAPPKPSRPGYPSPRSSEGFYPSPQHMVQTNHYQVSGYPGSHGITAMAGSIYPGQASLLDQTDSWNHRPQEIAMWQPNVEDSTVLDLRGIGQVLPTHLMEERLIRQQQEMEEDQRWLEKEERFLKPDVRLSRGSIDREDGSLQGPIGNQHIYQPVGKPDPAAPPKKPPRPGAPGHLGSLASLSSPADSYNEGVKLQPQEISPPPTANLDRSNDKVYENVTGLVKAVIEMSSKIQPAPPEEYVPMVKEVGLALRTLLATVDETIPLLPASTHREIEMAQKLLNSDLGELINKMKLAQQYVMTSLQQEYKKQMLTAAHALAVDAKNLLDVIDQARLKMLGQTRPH
UniProt P15151: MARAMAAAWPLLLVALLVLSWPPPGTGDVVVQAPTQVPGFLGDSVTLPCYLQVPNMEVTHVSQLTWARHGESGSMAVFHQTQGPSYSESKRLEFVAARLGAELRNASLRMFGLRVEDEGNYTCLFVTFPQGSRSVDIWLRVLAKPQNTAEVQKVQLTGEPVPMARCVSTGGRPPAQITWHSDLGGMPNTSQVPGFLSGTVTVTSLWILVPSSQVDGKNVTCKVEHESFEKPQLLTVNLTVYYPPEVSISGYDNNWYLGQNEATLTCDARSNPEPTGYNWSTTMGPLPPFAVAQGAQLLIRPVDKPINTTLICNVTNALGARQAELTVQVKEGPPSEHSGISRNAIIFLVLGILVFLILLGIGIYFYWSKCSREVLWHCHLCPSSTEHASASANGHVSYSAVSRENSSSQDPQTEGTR
UniProt P20962: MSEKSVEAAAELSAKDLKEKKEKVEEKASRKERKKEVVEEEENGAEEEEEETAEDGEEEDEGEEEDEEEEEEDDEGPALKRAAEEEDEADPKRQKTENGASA
UniProt Q9P2W1: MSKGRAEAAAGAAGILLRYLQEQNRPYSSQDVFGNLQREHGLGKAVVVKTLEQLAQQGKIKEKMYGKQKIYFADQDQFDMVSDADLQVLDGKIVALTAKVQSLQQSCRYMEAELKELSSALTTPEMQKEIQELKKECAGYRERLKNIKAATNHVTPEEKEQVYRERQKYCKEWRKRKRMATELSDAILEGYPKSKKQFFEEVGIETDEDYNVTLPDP
UniProt P49721: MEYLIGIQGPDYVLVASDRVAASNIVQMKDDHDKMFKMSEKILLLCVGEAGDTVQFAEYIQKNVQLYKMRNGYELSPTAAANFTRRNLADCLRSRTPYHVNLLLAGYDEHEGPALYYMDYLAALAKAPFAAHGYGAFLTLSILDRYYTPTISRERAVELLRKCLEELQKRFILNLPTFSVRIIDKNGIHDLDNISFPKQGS
UniProt Q13308: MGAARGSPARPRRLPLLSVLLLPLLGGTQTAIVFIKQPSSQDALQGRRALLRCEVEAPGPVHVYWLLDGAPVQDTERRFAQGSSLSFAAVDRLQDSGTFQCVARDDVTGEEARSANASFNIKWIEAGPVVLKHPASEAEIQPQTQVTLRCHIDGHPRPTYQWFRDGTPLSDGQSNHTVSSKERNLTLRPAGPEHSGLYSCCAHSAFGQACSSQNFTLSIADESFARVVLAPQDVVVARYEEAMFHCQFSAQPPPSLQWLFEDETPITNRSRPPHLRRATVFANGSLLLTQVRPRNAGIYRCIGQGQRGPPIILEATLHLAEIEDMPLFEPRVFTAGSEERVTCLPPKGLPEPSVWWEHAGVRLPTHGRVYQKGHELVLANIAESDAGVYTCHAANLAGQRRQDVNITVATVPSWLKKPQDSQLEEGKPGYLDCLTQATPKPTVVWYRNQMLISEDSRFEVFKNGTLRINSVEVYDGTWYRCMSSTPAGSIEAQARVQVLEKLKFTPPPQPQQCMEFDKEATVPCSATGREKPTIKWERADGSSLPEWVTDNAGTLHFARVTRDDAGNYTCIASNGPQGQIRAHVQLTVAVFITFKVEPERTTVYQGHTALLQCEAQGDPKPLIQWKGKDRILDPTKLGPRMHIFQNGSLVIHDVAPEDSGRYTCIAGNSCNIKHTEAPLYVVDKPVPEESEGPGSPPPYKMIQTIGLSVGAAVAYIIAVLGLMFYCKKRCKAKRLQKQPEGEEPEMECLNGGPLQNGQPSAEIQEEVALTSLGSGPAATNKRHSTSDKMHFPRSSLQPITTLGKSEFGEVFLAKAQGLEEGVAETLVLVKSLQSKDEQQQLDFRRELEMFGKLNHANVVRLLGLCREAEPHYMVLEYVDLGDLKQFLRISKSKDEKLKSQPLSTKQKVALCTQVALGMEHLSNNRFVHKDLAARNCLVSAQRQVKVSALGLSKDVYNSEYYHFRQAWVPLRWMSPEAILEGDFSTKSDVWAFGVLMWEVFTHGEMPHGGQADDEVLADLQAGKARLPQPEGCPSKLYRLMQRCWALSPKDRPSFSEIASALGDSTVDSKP
UniProt P78330: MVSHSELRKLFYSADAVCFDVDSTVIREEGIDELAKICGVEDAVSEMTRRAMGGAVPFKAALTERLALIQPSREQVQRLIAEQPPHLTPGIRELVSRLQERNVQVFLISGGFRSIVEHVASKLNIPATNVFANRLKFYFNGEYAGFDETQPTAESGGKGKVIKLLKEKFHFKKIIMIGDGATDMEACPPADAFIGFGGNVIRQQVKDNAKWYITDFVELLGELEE
UniProt P25786: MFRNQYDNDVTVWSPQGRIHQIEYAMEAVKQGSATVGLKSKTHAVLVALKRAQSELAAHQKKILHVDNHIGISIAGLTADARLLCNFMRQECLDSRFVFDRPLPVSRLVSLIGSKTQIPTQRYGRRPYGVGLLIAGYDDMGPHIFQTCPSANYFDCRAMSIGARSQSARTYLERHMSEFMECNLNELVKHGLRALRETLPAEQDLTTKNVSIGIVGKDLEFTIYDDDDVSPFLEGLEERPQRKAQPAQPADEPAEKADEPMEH
UniProt P26599: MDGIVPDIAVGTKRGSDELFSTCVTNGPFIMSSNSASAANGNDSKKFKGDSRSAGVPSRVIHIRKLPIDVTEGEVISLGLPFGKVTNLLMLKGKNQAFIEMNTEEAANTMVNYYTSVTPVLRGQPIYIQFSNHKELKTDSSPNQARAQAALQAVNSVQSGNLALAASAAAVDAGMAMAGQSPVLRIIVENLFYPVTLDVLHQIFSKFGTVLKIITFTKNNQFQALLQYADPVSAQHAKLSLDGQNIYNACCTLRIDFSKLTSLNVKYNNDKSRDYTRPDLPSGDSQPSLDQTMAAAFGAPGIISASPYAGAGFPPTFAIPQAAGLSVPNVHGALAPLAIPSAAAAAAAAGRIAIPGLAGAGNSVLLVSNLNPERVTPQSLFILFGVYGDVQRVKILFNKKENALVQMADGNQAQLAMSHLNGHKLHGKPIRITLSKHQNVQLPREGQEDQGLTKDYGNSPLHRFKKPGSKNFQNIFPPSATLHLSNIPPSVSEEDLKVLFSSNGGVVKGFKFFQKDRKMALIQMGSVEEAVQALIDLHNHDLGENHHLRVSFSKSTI
UniProt P49023, whole entry, looked up: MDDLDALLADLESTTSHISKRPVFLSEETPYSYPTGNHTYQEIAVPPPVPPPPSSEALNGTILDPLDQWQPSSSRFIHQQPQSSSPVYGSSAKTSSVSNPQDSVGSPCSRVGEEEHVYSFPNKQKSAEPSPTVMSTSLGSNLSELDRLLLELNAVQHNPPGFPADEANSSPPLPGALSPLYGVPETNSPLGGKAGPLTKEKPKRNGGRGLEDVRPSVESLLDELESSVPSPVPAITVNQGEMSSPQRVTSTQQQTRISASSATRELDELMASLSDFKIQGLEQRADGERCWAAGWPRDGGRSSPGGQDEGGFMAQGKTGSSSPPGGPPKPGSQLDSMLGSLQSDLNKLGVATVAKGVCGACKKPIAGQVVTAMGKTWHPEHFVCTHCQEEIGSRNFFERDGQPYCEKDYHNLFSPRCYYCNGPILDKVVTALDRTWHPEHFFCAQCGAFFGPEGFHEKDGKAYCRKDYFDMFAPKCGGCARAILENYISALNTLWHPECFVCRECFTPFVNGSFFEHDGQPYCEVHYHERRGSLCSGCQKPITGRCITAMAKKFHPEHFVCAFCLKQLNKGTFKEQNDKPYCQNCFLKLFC
UniProt P35236: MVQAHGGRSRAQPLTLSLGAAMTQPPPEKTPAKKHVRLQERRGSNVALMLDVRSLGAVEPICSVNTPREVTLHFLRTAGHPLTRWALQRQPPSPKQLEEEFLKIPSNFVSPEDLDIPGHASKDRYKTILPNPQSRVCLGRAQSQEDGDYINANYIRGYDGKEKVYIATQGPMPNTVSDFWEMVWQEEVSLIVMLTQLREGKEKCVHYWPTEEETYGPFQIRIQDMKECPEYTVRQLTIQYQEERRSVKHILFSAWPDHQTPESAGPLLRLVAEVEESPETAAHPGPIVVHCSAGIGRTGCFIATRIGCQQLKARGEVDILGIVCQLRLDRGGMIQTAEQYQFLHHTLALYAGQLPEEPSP
UniProt Q9Y6I8: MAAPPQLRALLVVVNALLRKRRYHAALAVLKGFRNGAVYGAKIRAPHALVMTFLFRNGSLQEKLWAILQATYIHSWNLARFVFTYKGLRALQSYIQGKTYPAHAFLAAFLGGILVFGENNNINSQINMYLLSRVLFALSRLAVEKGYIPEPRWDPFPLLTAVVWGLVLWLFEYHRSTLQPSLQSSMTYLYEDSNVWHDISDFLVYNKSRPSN
UniProt Q92530: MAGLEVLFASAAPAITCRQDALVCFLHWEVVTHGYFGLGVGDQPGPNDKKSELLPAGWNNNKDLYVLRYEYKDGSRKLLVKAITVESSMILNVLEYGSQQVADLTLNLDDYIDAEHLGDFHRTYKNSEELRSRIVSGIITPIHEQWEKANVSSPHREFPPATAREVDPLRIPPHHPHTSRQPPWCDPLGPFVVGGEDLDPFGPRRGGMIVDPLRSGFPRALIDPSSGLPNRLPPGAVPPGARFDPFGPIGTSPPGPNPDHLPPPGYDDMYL
UniProt Q9Y606: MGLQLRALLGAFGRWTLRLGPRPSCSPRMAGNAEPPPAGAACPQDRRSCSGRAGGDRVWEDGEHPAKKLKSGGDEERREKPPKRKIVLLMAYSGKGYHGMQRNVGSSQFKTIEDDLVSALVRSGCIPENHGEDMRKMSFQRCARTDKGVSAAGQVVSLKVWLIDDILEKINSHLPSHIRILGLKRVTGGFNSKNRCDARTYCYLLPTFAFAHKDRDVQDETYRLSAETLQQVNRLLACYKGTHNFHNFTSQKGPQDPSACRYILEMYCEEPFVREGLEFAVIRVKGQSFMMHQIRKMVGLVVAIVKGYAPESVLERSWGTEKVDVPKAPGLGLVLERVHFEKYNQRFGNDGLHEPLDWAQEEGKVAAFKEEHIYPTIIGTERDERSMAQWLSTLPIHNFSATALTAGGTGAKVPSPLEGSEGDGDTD
UniProt P23219, whole entry, looked up: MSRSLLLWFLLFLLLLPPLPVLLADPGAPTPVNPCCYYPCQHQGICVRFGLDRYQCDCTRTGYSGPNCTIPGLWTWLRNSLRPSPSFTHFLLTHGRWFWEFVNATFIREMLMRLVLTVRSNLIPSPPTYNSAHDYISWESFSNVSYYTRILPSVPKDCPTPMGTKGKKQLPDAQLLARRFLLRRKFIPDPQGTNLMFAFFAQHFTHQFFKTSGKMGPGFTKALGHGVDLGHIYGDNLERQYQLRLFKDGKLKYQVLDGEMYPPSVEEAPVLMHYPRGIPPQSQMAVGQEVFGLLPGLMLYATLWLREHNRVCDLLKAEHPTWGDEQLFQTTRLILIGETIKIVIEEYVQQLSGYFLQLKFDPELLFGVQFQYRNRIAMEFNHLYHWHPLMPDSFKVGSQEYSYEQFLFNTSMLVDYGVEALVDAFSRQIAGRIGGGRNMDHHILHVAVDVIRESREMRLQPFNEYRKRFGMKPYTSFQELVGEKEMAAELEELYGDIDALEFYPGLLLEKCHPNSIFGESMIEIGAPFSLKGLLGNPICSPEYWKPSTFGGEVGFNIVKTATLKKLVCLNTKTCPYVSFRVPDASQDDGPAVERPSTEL

compound: c1cn2cc(-c3ccc4cn[nH]c4c3)nc(Nc3ccc(N4CCOCC4)cc3)c2n1 [entospletinib]; assay: log2 fold change, soluble protein after heating vs DMSO (PISA); higher = thermal stabilisation; K562 cells, 10 uM, 30 min; active = over 0.2 and 3.5 SD of the protein, either way, in both replicates (recomputed)
In short: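 For each measurement, 10 μM compound was applied for 30 min to K562 cells at 2×10^6 cells/mL. Aliquots were heated for 3 min across 48°C-58°C, pooled, and extracted in PBS with 0.5% NP-40 at 4°C; the supernatant after 21,000xg for 90 min was soluble protein. This was quantified by TMTpro 16plex LC-MS/MS with channel sums equalised, and thermal stability was reported relative to control samples from duplicates, on a log2 fold-change scale.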

log2 fold change, inactive:
QPCTL (UniProt Q9NXS2) 0.027
PTK2 (UniProt Q05397) 0.016
PVR (UniProt P15151) -0.046
PTMS (UniProt P20962) 0.015
PSMC3IP (UniProt Q9P2W1) -0.136
PSMB7 (UniProt Q99436) 0.024
PSMB2 (UniProt P49721) -0.011
QTRT1 (UniProt Q9BXR0) -0.001
PUS3 (UniProt Q9BZE2) -0.047
PTER (UniProt Q96BW5) 0.013
PTK7 isoform 6 (UniProt Q13308) -0.034
PTBP3 isoform 4 (UniProt O95758) -0.001
PSPH (UniProt P78330) -0.002
QPRT (UniProt Q15274) -0.003
PSMA1 isoform 2 (UniProt P25786) 0.046
PTBP1 (UniProt P26599) 0.062
PXN (UniProt P49023) -0.001
PTPN7 isoform 3 (UniProt P35236) 0.214
PUDP isoform 4 (UniProt Q08623) 0.032
PXMP4 (UniProt Q9Y6I8) -0.025
QDPR (UniProt P09417) -0.018
PSMB5 isoform 3 (UniProt P28074) 0.028
PSAT1 (UniProt Q9Y617) -0.019
PSEN1 (UniProt P49768) 0.033
PSMA7 (UniProt O14818) 0.013
PSMF1 (UniProt Q92530) 0.024
PUS1 (UniProt Q9Y606) 0.478
PYGO2 (UniProt Q9BRQ0) 0.066
PTPN11 isoform 1 (UniProt Q06124) -0.002
PSME2 (UniProt Q9UL46) 0
PTGS1 isoform 6 (UniProt P23219) -0.068
PRXL2A (UniProt Q9BRX8) -0.193

Random excerpt: 2 records from the list
log2 fold change, inactive:
PSMF1 (UniProt Q92530) 0.024
PUS1 (UniProt Q9Y606) 0.478
